Here are results for 1 substance from article PMC3217271.

By UniProt entry, the sequences of proteins in these tests, tags left out.
UniProt Q99816: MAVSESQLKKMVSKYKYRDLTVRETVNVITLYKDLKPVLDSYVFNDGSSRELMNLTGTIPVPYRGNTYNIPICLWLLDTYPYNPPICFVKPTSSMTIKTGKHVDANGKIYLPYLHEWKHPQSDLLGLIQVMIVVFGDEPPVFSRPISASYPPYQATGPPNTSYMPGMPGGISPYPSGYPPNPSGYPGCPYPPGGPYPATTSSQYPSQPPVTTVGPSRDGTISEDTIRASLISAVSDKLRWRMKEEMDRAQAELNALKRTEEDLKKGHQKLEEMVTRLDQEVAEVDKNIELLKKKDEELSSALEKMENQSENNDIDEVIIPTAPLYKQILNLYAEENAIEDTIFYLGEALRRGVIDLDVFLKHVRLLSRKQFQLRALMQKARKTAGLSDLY
UniProt Q05128: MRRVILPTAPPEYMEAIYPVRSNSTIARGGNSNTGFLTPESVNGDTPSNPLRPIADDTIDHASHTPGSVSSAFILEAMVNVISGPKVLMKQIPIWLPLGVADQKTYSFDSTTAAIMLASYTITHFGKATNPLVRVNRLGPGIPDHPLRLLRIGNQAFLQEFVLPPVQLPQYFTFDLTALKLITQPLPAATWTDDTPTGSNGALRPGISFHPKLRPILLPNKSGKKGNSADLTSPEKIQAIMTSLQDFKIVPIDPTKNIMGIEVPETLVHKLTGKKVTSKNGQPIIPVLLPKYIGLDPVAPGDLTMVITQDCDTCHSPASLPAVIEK

No constants are given. Whether binding was seen depends on the method and setting. In cells and extracts the contact can be indirect. Some binding calls cover weakened binding; strength is not graded here.

In the assay the target is NYFP-Tsg101 (human) (UniProt Q99816). In words: split reporter.

Take “CYFP-eVP40-WT (from UniProt Q05128 1-326)”: the binding entry is “binds”.
